Assay results: doi:10.1101/701474
No constants are given. Whether binding was seen depends on the method and setting. Binding seen in cells or lysates may run through a third protein. Some entries that bind do so weakly or less than the wild type. For some of these results: Sequences can lack the tags named with a protein.

By UniProt entry, the sequences of proteins in these tests, tags left out.
UniProt P14635: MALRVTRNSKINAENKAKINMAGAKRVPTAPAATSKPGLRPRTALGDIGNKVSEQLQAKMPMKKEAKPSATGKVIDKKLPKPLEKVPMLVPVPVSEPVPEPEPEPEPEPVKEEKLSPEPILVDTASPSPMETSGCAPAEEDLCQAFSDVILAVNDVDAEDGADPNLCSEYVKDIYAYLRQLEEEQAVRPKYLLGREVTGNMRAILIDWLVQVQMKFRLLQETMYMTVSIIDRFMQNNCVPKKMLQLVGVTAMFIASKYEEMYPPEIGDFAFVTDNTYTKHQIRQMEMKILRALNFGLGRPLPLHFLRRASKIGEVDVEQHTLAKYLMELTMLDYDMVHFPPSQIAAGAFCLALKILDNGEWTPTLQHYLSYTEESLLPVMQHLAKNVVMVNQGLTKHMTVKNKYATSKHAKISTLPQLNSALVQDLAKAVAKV

Key:
[1] = target: Cyclin B1 (human (endogenous in HeLa)) (UniProt P14635); assay: co-IP
[2] = target: Cyclin B1 (RPE Cyclin B1-Venus+/-:Ruby-MAD2+/- cells) (human (endogenous in RPE1)) (UniProt P14635); assay: co-IP

B1: MAD1-Flag (39-329aa), wild type (domain or fragment, UniProt Q9Y6D9 39-329)
chain: GSLQMQYQQSMQLEERAEQIRSKSHLIQVEREKMQMELSHKRARVELERAASTSARNYEREVDRNQELLTRIRQLQEREAGAEEKMQEQLERNRQCQQNLDAASKRLREKEDSLAQAGETINALKGRISELQWSVMDQEMRVKRLESEKQELQEQLDLQHKKCQEANQKIQELQASQEARADHEQQIKDLEQKLSLQEQDAAIVKNMKSELVRLPRLERELKQLREESAHLREMRETNGLLQEELEGLQRKLGRQEKMQETLVGLELENERLLAKLQSWERLDQTMGLSIR
Question: For B1, which binding [1] is on record?
Answer: The binding was “binds”.

B2: MAD1α (endogenous, HeLa) (protein, UniProt Q9Y6D9-1 1-718)
chain: MEDLGENTMVLSTLRSLNNFISQRVEGGSGLDISTSAPGSLQMQYQQSMQLEERAEQIRSKSHLIQVEREKMQMELSHKRARVELERAASTSARNYEREVDRNQELLTRIRQLQEREAGAEEKMQEQLERNRQCQQNLDAASKRLREKEDSLAQAGETINALKGRISELQWSVMDQEMRVKRLESEKQELQEQLDLQHKKCQEANQKIQELQASQEARADHEQQIKDLEQKLSLQEQDAAIVKNMKSELVRLPRLERELKQLREESAHLREMRETNGLLQEELEGLQRKLGRQEKMQETLVGLELENERLLAKLQSWERLDQTMGLSIRTPEDLSRFVVELQQRELALKDKNSAVTSSARGLEKARQQLQEELRQVSGQLLEERKKRETHEALARRLQKRVLLLTKERDGMRAILGSYDSELTPAEYSPQLTRRMREAEDMVQKVHSHSAEMEAQLSQALEELGGQKQRADMLEMELKMLKSQSSSAEQSFLFSREEADTLRLKVEELEGERSRLEEEKRMLEAQLERRALQGDYDQSRTKVLHMSLNPTSVARQRLREDHSQLQAECERLRGLLRAMERGGTVPADLEAAAASLPSSKEVAELKKQVESAELKNQRLKEVFQTKIQEFRKACYTLTGYQIDITTENQYRLTSLYAEHPGDCLIFKATSPSGSKMQLLETEFSHTVGELIEVHLRRQDSIPAFLSSLTLELFSRQTVA
Question: For B2, which binding [1] is on record?
Answer: Its binding is “binds”.

B3: MAD1 (endogenous, parental RPE1 cells) (protein, UniProt Q9Y6D9 1-718)
chain: B2 chain
Question: Which binding [2] does the source give for B3 here?
Answer: The binding was “binds”.

B4: MAD1α, Flag-epitope tagged (protein, UniProt Q9Y6D9-1 1-718)
chain: B2 chain
Question: For B4, which binding [1] is on record?
Answer: Its binding is “binds”.
